# Microarray screen: hit calls

Data from the ROBIN nucleic acid binder screens, doi:10.1002/anie.202211358.

Targets (5′ to 3′):
PreQ1: PreQ1 riboswitch RNA pseudoknot, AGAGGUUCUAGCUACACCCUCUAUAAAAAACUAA. From B. subtilis. Hit rate about 0.7% of about 24,000 compounds.
TPP: TPP riboswitch RNA three-way junction, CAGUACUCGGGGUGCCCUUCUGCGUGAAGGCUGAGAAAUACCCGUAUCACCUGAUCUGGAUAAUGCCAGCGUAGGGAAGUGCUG. Hit rate about 0.7% of about 24,000 compounds.
SAM-II: SAM-II riboswitch RNA pseudoknot, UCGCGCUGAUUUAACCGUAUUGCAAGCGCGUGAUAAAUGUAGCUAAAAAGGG. Hit rate about 1% of about 21,000 compounds.

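The test is a small-molecule microarray: each compound is printed twice on a reactive slide, and binding shows as fluorescence of the labelled oligonucleotide after washing. For the PreQ1, TPP and SAM-II riboswitches the laboratory earlier reported (doi:10.1038/s41467-019-09493-3) 1 µM RNA, 2 h, and a rule that included a mean Z-score above 3 (spot signal-to-noise against the whole library), a score well above that on a control array, and duplicate spots agreeing (coefficient of variation under 100). The data file gives only the calls; its cut-offs may differ, and compounds hitting several targets are kept. The calls come from the array alone, and fixing a compound to the slide can hide its binding.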
Key: active = hit, inactive = tested without a hit.
The compounds are a random part of those screened.
A target missing from an entry has no call listed here.

For OC1CCCN(c2ccnc(NCc3csc(-c4ncccn4)n3)n2)C1 (configuration not stated) the calls were PreQ1: inactive; TPP: inactive; SAM-II: inactive. With Cc1cnc(C)c(-c2cc(O)c3c(c2)CN(c2ccnc(N)n2)CCO3)n1 the screen gave PreQ1: inactive; TPP: inactive; SAM-II: inactive. With Cl.NC(CC(=O)OC1CCCCC1)C(=O)OC1CCCCC1 (configuration not stated) the screen gave PreQ1: inactive; TPP: inactive; SAM-II: inactive. For CC1CC(Nc2ccccc2)c2ccccc2N1C(=O)COc1ccc(F)cc1 (configuration not stated) the calls were PreQ1: inactive; TPP: inactive; SAM-II: inactive. CCc1oc2ccccc2c1-c1c(-c2ccccc2)ncn1C(CO)CO was scored PreQ1: inactive; TPP: inactive; SAM-II: inactive.

For Cc1cc(C)c2c(CC(=O)N3CCC(O)(CO)CC3)coc2c1C the calls were PreQ1: inactive; TPP: inactive; SAM-II: inactive. Calls for Nc1ccc(Nc2ccccc2)c(S(=O)(=O)O)c1 are PreQ1: inactive; TPP: inactive; SAM-II: inactive. O=C(c1ccc(CSc2ccccn2)cc1)N1CCOCC(O)C1 (configuration not stated) was scored PreQ1: inactive; TPP: inactive; SAM-II: inactive. Calls for CSCCC(O)c1nc(CC2CCN(C)CC2)nn1CC(F)(F)F (configuration not stated) are PreQ1: inactive; TPP: inactive; SAM-II: inactive. For Brc1ccc(/N=N/c2ccc3ccccc3n2)cc1 the calls were PreQ1: inactive; TPP: inactive; SAM-II: inactive.

With Cc1ccccc1-c1ncc(CN2CCC(C(O)c3nccn3C)CC2)s1 (configuration not stated) the screen gave PreQ1: inactive; TPP: inactive; SAM-II: inactive. O=C1C=C(NCCCN2CCOCC2)C2(CCCCC2)O1 was scored PreQ1: inactive; TPP: inactive; SAM-II: inactive. For CCC(C)[C@H](N)c1nnc(SCc2cccc(Cl)c2)o1 (some centres not stated) the calls were PreQ1: inactive; TPP: inactive; SAM-II: inactive. COc1ccc(C2C(C#N)=C(N)Oc3cc(N)ccc32)cc1Br (configuration not stated) was scored PreQ1: inactive; TPP: inactive; SAM-II: inactive. For Cc1cc(C)cc(Nc2cc(=O)oc3ccccc23)c1 the calls were PreQ1: inactive; TPP: inactive; SAM-II: inactive.

With OCCn1c(CN2CCCCC2)nc2ccccc21 the screen gave PreQ1: inactive; TPP: inactive; SAM-II: inactive. With O=C(NCCO)c1nnn(-c2ccc(Cl)cc2)c1-c1ccco1 the screen gave PreQ1: inactive; TPP: inactive; SAM-II: inactive. CCOc1ccccc1Nc1cc(C)nc2nc(C)nn12 was scored PreQ1: inactive; TPP: inactive; SAM-II: inactive. O=C(O)c1cc2cc(OCc3ccccc3)ccc2[nH]1 was scored PreQ1: inactive; TPP: inactive; SAM-II: inactive. With CC(c1nnc(N)s1)n1cc(COCc2ccccc2)nn1 (configuration not stated) the screen gave PreQ1: inactive; TPP: inactive; SAM-II: inactive.

CCOC(=O)c1cc(CNC2CCS(=O)(=O)C2)on1 (configuration not stated) was scored PreQ1: inactive; TPP: inactive; SAM-II: inactive. CCOC(=O)C1CCN(c2c(NCCC(C)C)c(=O)c2=O)CC1 was scored PreQ1: inactive; TPP: inactive; SAM-II: inactive. With C[C@@H]1CN(C[C@@H]2CN(C(=O)CCCc3cn[nH]c3)C[C@@H]2CO)C[C@H](C)O1 the screen gave PreQ1: inactive; TPP: inactive; SAM-II: inactive. Calls for COc1ccc(NC(=O)c2c(N)c(C(=O)c3ccc(OC)cc3)n3ccccc23)cc1 are PreQ1: inactive; TPP: inactive.

The first 2 entries again:

structure	PreQ1	TPP	SAM-II
OC1CCCN(c2ccnc(NCc3csc(-c4ncccn4)n3)n2)C1 (configuration not stated)	inactive	inactive	inactive
Cc1cnc(C)c(-c2cc(O)c3c(c2)CN(c2ccnc(N)n2)CCO3)n1	inactive	inactive	inactive